In assay [1] the target is T1, Rsa3-FPZ (S. cerevisiae) (UniProt Q05942).
T1 sequence: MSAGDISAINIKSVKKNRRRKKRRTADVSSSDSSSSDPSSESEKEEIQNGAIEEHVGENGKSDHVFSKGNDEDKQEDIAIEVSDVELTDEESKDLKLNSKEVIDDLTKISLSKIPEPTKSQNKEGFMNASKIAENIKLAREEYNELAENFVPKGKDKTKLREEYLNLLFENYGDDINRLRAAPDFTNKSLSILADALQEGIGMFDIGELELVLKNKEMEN
The assay can be described thus: co-IP.

Protein sequences, listed by entry. Tags and fused reporters are not part of them.
UniProt P34241: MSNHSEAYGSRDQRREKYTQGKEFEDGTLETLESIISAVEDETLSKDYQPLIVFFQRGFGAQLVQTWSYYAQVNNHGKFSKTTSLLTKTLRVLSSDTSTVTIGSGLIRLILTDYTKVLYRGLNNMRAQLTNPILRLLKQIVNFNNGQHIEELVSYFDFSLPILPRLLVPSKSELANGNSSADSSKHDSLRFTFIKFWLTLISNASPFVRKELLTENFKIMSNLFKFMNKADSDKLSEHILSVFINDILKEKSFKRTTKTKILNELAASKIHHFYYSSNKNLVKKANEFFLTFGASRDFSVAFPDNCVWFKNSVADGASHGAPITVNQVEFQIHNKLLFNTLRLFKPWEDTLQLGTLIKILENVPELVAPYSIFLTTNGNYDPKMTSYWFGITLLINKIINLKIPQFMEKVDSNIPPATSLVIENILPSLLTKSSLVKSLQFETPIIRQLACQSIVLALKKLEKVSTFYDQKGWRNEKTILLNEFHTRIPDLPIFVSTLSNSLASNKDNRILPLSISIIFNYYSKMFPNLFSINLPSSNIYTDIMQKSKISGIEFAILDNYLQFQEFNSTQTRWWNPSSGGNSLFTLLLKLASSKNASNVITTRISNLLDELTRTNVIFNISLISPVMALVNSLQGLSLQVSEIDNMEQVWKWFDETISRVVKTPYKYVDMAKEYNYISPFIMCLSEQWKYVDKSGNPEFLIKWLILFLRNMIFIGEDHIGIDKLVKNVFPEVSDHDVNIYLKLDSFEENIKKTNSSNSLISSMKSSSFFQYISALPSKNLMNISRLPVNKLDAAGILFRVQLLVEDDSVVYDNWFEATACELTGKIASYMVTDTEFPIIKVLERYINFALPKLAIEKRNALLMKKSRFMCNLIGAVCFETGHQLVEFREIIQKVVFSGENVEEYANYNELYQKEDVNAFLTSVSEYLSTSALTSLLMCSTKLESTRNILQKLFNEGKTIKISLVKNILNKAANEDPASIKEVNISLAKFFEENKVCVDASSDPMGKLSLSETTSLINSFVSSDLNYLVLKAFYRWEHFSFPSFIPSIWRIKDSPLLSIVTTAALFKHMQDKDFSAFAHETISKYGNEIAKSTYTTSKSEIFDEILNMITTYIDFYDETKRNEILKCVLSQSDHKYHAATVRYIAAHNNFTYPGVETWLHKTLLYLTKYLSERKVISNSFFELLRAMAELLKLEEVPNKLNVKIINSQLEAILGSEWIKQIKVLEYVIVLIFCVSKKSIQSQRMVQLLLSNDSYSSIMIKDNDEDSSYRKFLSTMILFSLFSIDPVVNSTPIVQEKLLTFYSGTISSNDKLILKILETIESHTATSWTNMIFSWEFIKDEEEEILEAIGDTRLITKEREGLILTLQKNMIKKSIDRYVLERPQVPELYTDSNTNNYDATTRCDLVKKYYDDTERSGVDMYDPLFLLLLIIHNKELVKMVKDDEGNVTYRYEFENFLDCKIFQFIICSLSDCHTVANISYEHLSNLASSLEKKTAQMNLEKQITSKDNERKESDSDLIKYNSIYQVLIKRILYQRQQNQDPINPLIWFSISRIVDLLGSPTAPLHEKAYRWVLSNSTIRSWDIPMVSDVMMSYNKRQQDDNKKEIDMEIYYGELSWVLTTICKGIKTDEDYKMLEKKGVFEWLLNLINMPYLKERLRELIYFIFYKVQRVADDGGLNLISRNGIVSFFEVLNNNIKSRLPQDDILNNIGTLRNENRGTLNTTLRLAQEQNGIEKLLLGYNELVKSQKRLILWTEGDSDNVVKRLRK

The target in assay [2] is T1, Rsa3-FPZ (S. cerevisiae). Put plainly: co-IP. The source holds these as a separate data set.

Where two headings read alike, the source gives them in different places. Results are given in words; binding and its absence hold for the method and conditions named. In cells and extracts the contact can be indirect. Some results given as binding are weak or reduced against the parent protein; the word gives no strength.

As for Npa1 (from UniProt P34241 1-1764), the binding entry in assay [1] and in assay [2] was “binds” throughout.

(Values after article doi:10.1101/2024.09.27.614885.)
